Data as given in PubChem BioAssay AID504808 (Drosophila RNAi Screening Center, 2011).
Screen: 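Genes whose loss lifts activity of an E2F-responsive reporter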 (primary screen). Cells: Drosophila S2 cells. Knock-down reagent: long dsRNA against Drosophila genes. Read-out: 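Firefly luciferase driven by E2F sites, normalised to Renilla luciferase on the same minimal promoter, measured by plate reader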. Reading the numbers: E2F firefly: higher = more E2F reporter activity; Renilla normaliser: higher = more normaliser reporter signal. Call rule: 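Called active if the normalised E2F reporter went up by over 50%; the cutoff is arbitrary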.
The deposit covers about 21,000 reagents; shown is a random part of those with a known target gene and a result. Over the whole deposit, 18 (0.084%) were called active. 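Raw counts without plate normalisation, one of two replicates; the ratio scores behind the calls were not deposited.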 Names joined by + are all predicted targets of the reagent. The record does not give: the amount of reagent, the time to read-out.

The first 4 entries, ahead of the listing:
predicted target	DRSC id	E2F firefly, rep 1	Renilla normaliser, rep 1	Call
stmA	DRSC05120	1.33e5	5511	inactive
stmA	DRSC07593	3185	247	inactive
rtp	DRSC12132	79775	3461	inactive
Fign	DRSC00592	92755	4050	inactive

Main list, repeating the preview:
predicted target	DRSC id	E2F firefly, rep 1	Renilla normaliser, rep 1	Call
stmA	DRSC05120	1.33e5	5511	inactive
stmA	DRSC07593	3185	247	inactive
rtp	DRSC12132	79775	3461	inactive
Fign	DRSC00592	92755	4050	inactive
brwl	DRSC01080	1.30e5	5361	inactive
brwl	DRSC02729	64216	3161	inactive
CG7367	DRSC03049	1.58e5	5316	inactive
gce	DRSC19613	1.42e5	6704	inactive
gce	DRSC19974	1.16e5	5713	inactive
MED27	DRSC12205	1.11e5	6197	inactive
CG42749	DRSC18091	44802	3334	inactive
CG42749	DRSC18092	34848	3172	inactive
Sirt1	DRSC03435	67745	3181	inactive
su(r)	DRSC18705	7310	692	inactive
Cpr92F	DRSC15819	1.15e5	7032	inactive
Cpr64Ac	DRSC08462	1.10e5	4139	inactive
Cyt-c1L	DRSC14860	1.25e5	5869	inactive
Rhau	DRSC03200	86809	3814	inactive
CG10559	DRSC14255	1.02e5	5115	inactive
na	DRSC19639	1.75e5	14743	inactive
CG13137	DRSC02234	1.55e5	5003	inactive
Crz	DRSC16615	1.14e5	5741	inactive
CG8119	DRSC20083	2.03e5	9100	inactive
mmm	DRSC10208	93495	3920	inactive
ytr	DRSC04306	84051	3764	inactive
salto	DRSC06291	2764	198	inactive
TotA	DRSC13448	80075	2583	inactive
CG10911	DRSC06008	1.51e5	5184	inactive
Coq4 + Gorab + frc	DRSC10383	1.78e5	9485	inactive
CG14120	DRSC10124	1.30e5	5932	inactive
CG9452	DRSC11075	1.42e5	7762	inactive
EMC5	DRSC02469	97717	4159	inactive
CG34301	DRSC12704	55173	5065	inactive
CG9447	DRSC05008	1.63e5	5149	inactive
Obp99b	DRSC16264	1.08e5	6469	inactive
obst-H	DRSC10935	1.72e5	7147	inactive
obst-H	DRSC10940	1.71e5	7248	inactive
CG1571	DRSC18068	1.49e5	7393	inactive
Glo1	DRSC06657	1.35e5	4586	inactive
CG8519	DRSC10985	95492	3608	inactive
CG7368	DRSC10826	1.11e5	5105	inactive
CG4022	DRSC10395	1.20e5	7075	inactive
IntS4	DRSC17810	8739	868	inactive
CG11843	DRSC14401	1.12e5	6676	inactive
CG6961 + CG18259	DRSC19799	1.32e5	6494	inactive
CG6961 + CG18259	DRSC20019	1.56e5	5053	inactive
Mtk	DRSC07475	1.05e5	4168	inactive
Pp2C1	DRSC18699	7674	844	inactive
botv	DRSC05949	86067	3291	inactive
SCaMC	DRSC10293	71560	3135	inactive
SCaMC	DRSC10415	1.11e5	5323	inactive
Naxd	DRSC09722	77723	3746	inactive
CG1421	DRSC03707	99988	4216	inactive
CG12129	DRSC06105	2739	215	inactive
Ciao1	DRSC06170	2999	182	inactive
RNaseZ	DRSC06845	1.56e5	4990	inactive
CG7650	DRSC10898	1.58e5	7884	inactive
CG10553	DRSC14254	94849	5226	inactive
CG14454	DRSC11711	1.05e5	6476	inactive
CG18735	DRSC04312	90992	4182	inactive
CG13032	DRSC09912	1.59e5	7438	inactive
teq	DRSC10298	89605	4215	inactive
teq	DRSC11301	89227	3697	inactive
teq	DRSC11302	84043	3669	inactive
Tango5	DRSC18023	8015	760	inactive
CG31088	DRSC13123	78565	2070	inactive
Rad1 + Sws1	DRSC00778	1.77e5	6209	inactive
sona	DRSC04089	1.09e5	4341	inactive
sona	DRSC04574	80523	4581	inactive
sona	DRSC04575	1.05e5	4335	inactive
Ir7e	DRSC18011	49483	3678	inactive
CG30385	DRSC06031	1.54e5	5331	inactive
fusl	DRSC02351	69293	3434	inactive
mTerf3	DRSC11759	66369	3790	inactive
gl	DRSC16957	1.47e5	7910	inactive
NdufA3	DRSC18431	55547	4281	inactive
mod	DRSC16999	1947	916	inactive
Actbeta	DRSC17185	65217	2393	inactive
Actbeta	DRSC17217	52995	4571	inactive
l(3)72Dp	DRSC10477	1.55e5	8491	inactive
CG34425	DRSC12210	1.38e5	7886	inactive
CG8818	DRSC07275	2982	129	inactive
His2B:CG33870 + His2B:CG33868 + His2B:CG33882 + 21 more	DRSC03757	74774	4271	inactive
Ent3	DRSC09822	69825	3172	inactive
